Literature values in US5104814A, “Assay kit and methods for neuroleptic drugs” (Schering Corporation, priority 1990, dated 1992).

Test system: D-1 receptor
Conditions: reported, Life Sciences 23, 551 (1978); cited from earlier work

Row | Substance | non-specific binding as share of total binding
1 | ^3 H-flupentixol | ~74%
2 | ^3 H-piflutixol | about 66%
